Several values for one entry are separate records, joined by “and”; a condition that tells them apart may be missing. Equal entries are not always repeated. The list shows a part of the results. These are further read-outs of the screen, such as a control signal, another cell line or another target. No call is given for them. Most of these compounds were active or inconclusive in the main read-out, so they are no random draw. The note in brackets gives the kind of curve behind each potency; many fits are weak.
Assay: qHTS Assay for Modulators of Lamin A Splicing
Conditions: HeLa LMNA splicing GFP/RFP minigene ratio, 48 h
How it was run: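 Read-out is the ratio of GFP to DsRed2 object intensity, acquired by 488 nm laser-scanning cytometry on HeLa lamin A-EGFP minigene reporter cells. Compound incubation 48 hrs at 37 °C in Opti-MEM with 2% FBS; DMSO 0.5% final.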

[1] = measured here: RFP viability control channel
[2] = measured here: GFP splicing reporter channel

## COC(=O)c1sccc1NC(=O)CN1CCN(c2ccc(F)cc2)CC1
[1]
  AC50: 17.8 µM [rising, partial curve]

## CCOC(=O)C1=C(C)N(CCO)C(=O)NC1c1ccccc1 (stereo unspecified)
[2]
  AC50: 0.0112 µM [rising, full curve, poor fit]
[1]
  AC50: 0.00891 µM [rising, full curve]

## CCOC(=O)Cc1cc(=O)n2[nH]cc(-c3ccc(Cl)cc3)c2n1
[1]
  AC50: 0.00447 µM [rising, full curve, poor fit]

## CCCNC(=O)c1nn2cc(Br)cnc2c1Cl
[2]
  AC50: 1.41 µM [rising, full curve, poor fit]

## N#C/C(=C\c1ccc(-c2cccc([N+](=O)[O-])c2)o1)C(=O)NCCN1CCOCC1
[2]
  AC50: 20 µM [falling, partial curve, poor fit]

## CCOC(=O)C1CCCN(c2ncnc3c2cnn3-c2ccc(C)c(Cl)c2)C1 (stereo unspecified)
[2]
  AC50: 35.5 µM [falling, partial curve, poor fit]

## Nc1sc(-c2ccccc2)c(Cc2ccccc2)c1C(=O)O
[1]
  AC50: 0.447 µM [rising, single point]

## O=C(CCCCCn1c(SCC(=O)c2ccccc2)nc2ccccc2c1=O)NCc1ccco1
[1]
  AC50: 14.1 µM [rising, single point]

## O=C(O)/C=C\c1ccccc1Oc1cccc(Cl)c1
[2]
  AC50: 14.1 µM [falling, single point]
[1]
  AC50: 11.2 µM [falling, partial curve, poor fit]

## Clc1ccc(CCNc2ncnc3c2c(-c2ccccc2)cn3-c2ccccc2)cc1
[2]
  AC50: 0.794 µM [falling, full curve, poor fit]
[1]
  AC50: 0.0631 µM [falling, full curve, poor fit]

## CCN(CC)c1ncnc2c1sc1nc(C)cc(C)c12
[1]
  AC50: 14.1 µM [falling, single point]

## CCN(CC)C(=S)SSC(=S)N(CC)CC
[2]
  AC50: 112 nM [falling, full curve] and 63.1 nM [falling, full curve, poor fit] and 35.5 nM [falling, full curve]
[1]
  AC50: 89.1 nM [falling, full curve] and 2.82 µM [falling, partial curve] and 200 nM [falling, full curve]

## COc1ccccc1C(=O)Nc1nc2ccc(S(=O)(=O)N3CCCC3)cc2s1
[2]
  AC50: 0.562 µM [rising, full curve, poor fit]

## Cc1nc2ccccc2c2oc(C(=O)N3CCN(C4CCCCC4)CC3)cc12
[1]
  AC50: 11.2 µM [rising, partial curve]

## N/C(=N/OCc1cccc([N+](=O)[O-])c1)c1nonc1N
[2]
  AC50: 35.5 µM [rising, single point]
[1]
  AC50: 35.5 µM [rising, single point]

## Clc1ccc(COn2ccnc2)cc1Cl
[2]
  AC50: 0.316 µM [rising, full curve, poor fit]

## O=C(NCc1ccccc1Cl)C(=O)NCC(c1ccco1)N1CCOCC1 (stereo unspecified)
[2]
  AC50: 0.0316 µM [falling, full curve, poor fit]
[1]
  AC50: 0.0316 µM [falling, full curve]

## CC(C)(C)c1ccc(NC(=O)COC(=O)C2(C)CC2(Cl)Cl)cc1 (stereo unspecified)
[2]
  AC50: 5.62 µM [rising, full curve, poor fit]
[1]
  AC50: 12.6 µM [rising, single point]

## Cc1ccc(CSc2nnc(NC(=O)C3COc4ccccc4O3)s2)cc1 (stereo unspecified)
[2]
  AC50: 35.5 µM [rising, single point]
[1]
  AC50: 20 µM [rising, single point]

## C/C(=N\NC(=S)Nc1c(C)cccc1C)c1ccc(OC(F)F)cc1
[2]
  AC50: 11.2 µM [rising, partial curve]

## Cc1ccc(NC(=O)Nc2ccccc2)cc1[N+](=O)[O-]
[1]
  AC50: 20 µM [rising, single point]

## COc1ccc(NC(=O)c2ccc(C)cc2)c(OC)c1
[1]
  AC50: 22.4 µM [rising, single point]

## COc1cc2c(cc1OC)CN(CC(=O)NC(=O)NC(C)(C)C)CC2
[2]
  AC50: 3.16 µM [rising, full curve, poor fit]

## COC(=O)c1ccccc1-c1ccc(/C=N/NC(=O)c2cc3ccccc3o2)o1
[1]
  AC50: 17.8 µM [rising, single point]

## O=C(OC(C(=O)Nc1ccc(Cl)c(C(F)(F)F)c1)c1ccccc1)C1=COCCO1 (stereo unspecified)
[2]
  AC50: 12.6 µM [rising, single point]
[1]
  AC50: 25.1 µM [rising, single point]

## Cc1nn(C)c(C)c1NC(=O)CCCSc1nc(-c2ccco2)cc(C(F)(F)F)n1
[2]
  AC50: 35.5 µM [rising, single point]
[1]
  AC50: 35.5 µM [rising, partial curve]

## COc1ccc(Nc2nnc(SC(C(=O)Nc3ccc(OC)c(Cl)c3)c3ccccc3)s2)cc1 (stereo unspecified)
[2]
  AC50: 8.91 µM [rising, partial curve]
[1]
  AC50: 14.1 µM [rising, single point]

## Cc1ccc2ccc(C(Nc3ccccn3)c3ccccc3)c(O)c2n1 (stereo unspecified)
[1]
  AC50: 15.8 µM [rising, single point]

## COc1ccc(/C=C/C(=O)C2C(=O)C=C(C)OC2=O)cc1O (stereo unspecified)
[1]
  AC50: 10 µM [rising, partial curve]

## CC(C)Cc1nn2c(=O)cc(COC(=O)c3cccc(NC(=O)CCc4ccccc4)c3)nc2s1
[2]
  AC50: 11.2 µM [falling, partial curve]
[1]
  AC50: 7.94 µM [falling, partial curve]

## N#C/C(=C\c1ccc(N2CCOCC2)o1)c1ccccc1
[2]
  AC50: 22.4 µM [falling, single point]
[1]
  AC50: 35.5 µM [falling, single point]

## COc1ccccc1/C=C/C=N/n1c(-c2ccncc2)n[nH]c1=S
[1]
  AC50: 11.2 µM [rising, partial curve]

## O=C(Nc1nccs1)c1cc(-c2ccccc2)nc2ccccc12
[2]
  AC50: 11.2 µM [rising, partial curve, poor fit]
[1]
  AC50: 35.5 µM [rising, single point]

## Cc1ccc(NNC(=S)Nc2ccc(C(C)C)cc2)c(C)c1
[1]
  AC50: 12.6 µM [rising, single point]

## C/C(=N/NC(=O)c1ccoc1C)c1cccc(NC(=O)C2CC2)c1
[2]
  AC50: 0.224 µM [rising, full curve, poor fit]
[1]
  AC50: 0.251 µM [rising, full curve]

## O=C(CCNS(=O)(=O)c1ccc(Cl)cc1)N1CCN(Cc2ccccc2)CC1
[1]
  AC50: 35.5 µM [rising, single point]

## O=C(Cn1nc(-c2ccccc2F)ccc1=O)Nc1ccc(S(=O)(=O)N2CCCCCC2)cc1
[1]
  AC50: 20 µM [rising, single point]

## OCC1(Cc2cccc(F)c2)CCN(Cc2ccc3cccc(F)c3n2)CC1
[2]
  AC50: 0.00891 µM [falling, full curve, poor fit]
[1]
  AC50: 0.0708 µM [falling, full curve, poor fit]

## CCN1CCN(c2nc(-c3ccncc3)nc3ccccc23)CC1
[1]
  AC50: 35.5 µM [rising, single point]

## O=C(CSc1nc(-c2cccs2)cc(C(F)(F)F)n1)NCCCn1ccnc1
[1]
  AC50: 6.31 µM [rising, full curve, poor fit]

## CCN(CC)CCCNC(=O)c1oc2c(c1C)-c1nn(Cc3ccc(Cl)cc3)cc1CC2
[1]
  AC50: 0.891 µM [falling, partial curve, poor fit]

## CN(CCO)c1cc(N(C)CCO)c([N+](=O)[O-])cc1[N+](=O)[O-]
[2]
  AC50: 0.0224 µM [rising, full curve, poor fit]

## Cc1onc(-c2ccccc2Cl)c1C(=O)Nc1nnc(-c2ccc(F)cc2)s1
[1]
  AC50: 35.5 µM [rising, single point]

## COc1ccc(N=CC2=C(O)CC(c3ccccc3)CC2=O)c(OC)c1 (stereo unspecified)
[2]
  AC50: 8.91 µM [rising, partial curve]
[1]
  AC50: 20 µM [rising, partial curve]

## COc1ccc(C(CC(=O)O)NC(=O)Nc2ccccc2)cc1OC (stereo unspecified)
[2]
  AC50: 4.47 µM [rising, partial curve]
[1]
  AC50: 3.55 µM [rising, partial curve]

## CCOC(=O)Cn1c(CN2CCN(C(c3ccccc3)c3ccccc3)CC2)nc2c1c(=O)n(C)c(=O)n2C
[1]
  AC50: 10 µM [rising, partial curve]

## Cc1nc(C(C)NC(=O)CCc2nnc(Cc3c[nH]c4ccccc34)o2)cs1 (stereo unspecified)
[2]
  AC50: 0.141 µM [falling, full curve, poor fit]
[1]
  AC50: 0.158 µM [falling, full curve, poor fit]

## CCNC(=S)Nc1ccc2ncoc2c1
[1]
  AC50: 2.82 µM [rising, single point]

## NC(=O)c1ccccc1NC(=S)NC(=O)CCc1ccccc1
[2]
  AC50: 35.5 µM [rising, single point]
[1]
  AC50: 10 µM [rising, partial curve]

## CCCn1c(N)c(C(=O)CSc2nnc(Cc3ccccc3)o2)c(=O)n(C)c1=O
[2]
  AC50: 0.708 µM [rising, partial curve]
[1]
  AC50: 12.6 µM [rising, partial curve]

## COC(=O)c1ccc(NC(=O)CN(c2ccc(C)cc2)S(=O)(=O)c2c(C)n[nH]c2C)cc1
[2]
  AC50: 35.5 µM [falling, partial curve, poor fit]
[1]
  AC50: 14.1 µM [falling, single point]

## COc1ccc(C(=O)CCC(=O)Nc2ccccc2C)cc1
[1]
  AC50: 35.5 µM [falling, partial curve]

## O=C(CSc1cc(Cl)ccc1Cl)NCC(=O)Nc1ccc(F)c(F)c1F
[1]
  AC50: 20 µM [rising, partial curve]

## CSc1nc(Sc2ccccc2)c2ccccc2n1
[1]
  AC50: 14.1 µM [rising, partial curve]

Source: PubChem BioAssay AID1487 (National Center for Advancing Translational Sciences (NCATS), 2009)
